# Data: PubChem BioAssay AID540276 (National Center for Advancing Translational Sciences (NCATS), 2011)
# The whole screen tested about 300,000 compounds, of which about 5,400 (1.8%) were called active. Inconclusive results, whose numbers are uncertain, are shown with a selection of clear calls. Calls come from the whole dose curve; tested in HEK293 cells. Where the call is inconclusive, the potency comes from a doubtful curve fit.
# Assay: qHTS for inhibitors of binding or entry into cells for Marburg Virus
# Conditions: Marburg virus pseudotyped entry inhibition, cell reporter; activity change, negative = inhibition: at 37.8 µM (top of the series) unless noted
# % is set by controls: 0 for no effect and ±100 for the full control effect; potency is the fitted concentration of half-maximal effect.
SMILES,Potency,"activity change, negative = inhibition"
COc1ccc(-c2csc(NC(=O)c3ccc(OCC(=O)N4CCOCC4)c(OC)c3)n2)cc1,"inconclusive: 29.1 µM [inhibitor, single point]",
O=C(Nc1cccnc1)c1cccs1,"inconclusive: 29.1 µM [inhibitor, single point]",
CCCC1(C(=O)OC)NC(c2ccc(OC)c(OC)c2)C2C(=O)N(c3cccc(C(C)=O)c3)C(=O)C21 (configuration not stated),,inactive: 0.369% [at 46.1 µM]
O=C(COc1ccccc1Cl)N1CCN(c2ccc([N+](=O)[O-])c(N3CCOCC3)c2)CC1,"inconclusive: 20.6 µM [inhibitor, partial curve, poor fit]",
Cc1ccc(SCC(=O)Nc2ccc3oc(-c4ccc(F)cc4)nc3c2)cc1,"inconclusive: 6.31 µM [activator, partial curve, poor fit]",
CCOC(=O)c1ccc2nc(NC(=O)c3ccco3)sc2c1,"inconclusive: 20 µM [inhibitor, single point]",
COc1ccc(N2C(=O)C3ON(C4SC(=S)N(C)C4(C)C)C(c4ccc(Cl)cc4)C3C2=O)cc1 (configuration not stated),"inconclusive: 0.631 µM [activator, partial curve, poor fit]",
COc1ccc(C(C)=NNC(=O)c2cccc(S(=O)(=O)N3CCCC3)c2)cc1,"inconclusive: 15.8 µM [inhibitor, single point]",
COCCn1c(SCC(=O)c2ccccc2)nc2c(c1=O)SCC2,,inactive: -2.39% [at 46.1 µM]
Cn1c(CN2CCOCC2)nc2cc(NC(=O)COc3ccc([N+](=O)[O-])cc3)ccc21,"inconclusive: 2.51 µM [inhibitor, partial curve, poor fit]",
Cc1cc(=O)oc2cc(OCC(O)CN3CCN(c4ccccc4)CC3)ccc12 (configuration not stated),"inconclusive: 0.708 µM [inhibitor, full curve, poor fit]",
O=C1CC2(CCN(C(=O)COc3ccc(Cl)cc3)CC2)Oc2ccccc21,,inactive: 4.88% [at 46.1 µM]
O=C(COC(=O)c1cc([N+](=O)[O-])ccc1N1CCOCC1)NCCc1ccccc1,"inconclusive: 4.47 µM [activator, partial curve, poor fit]",
COc1cccc(NC(=O)CN(C)C(=O)CCCNC(=O)c2ccc(Cl)cc2)c1,"inconclusive: 5.62 µM [activator, partial curve, poor fit]",
O=C(Cc1cccs1)Nc1ccc(S(=O)(=O)N2CCCC2)cc1,,inactive: 19.8% [at 46.1 µM]
C/C(CCc1ccco1)=N/NC(=O)CCC(=O)Nc1ccc(Br)cc1,"inconclusive: 0.891 µM [inhibitor, full curve, poor fit]",
Cc1ccc(NC(=O)COC(=O)c2ccnn2C)cc1,,inactive: 0.162%
Cc1cccc(C(C#N)c2ccc(Cl)nn2)c1 (configuration not stated),"inconclusive: 35.5 µM [inhibitor, single point]",
COc1ccc(OCC(=O)Nc2ncc3c(n2)CC(C)(C)CC3=O)cc1,,inactive: 2.83%
COc1ccc(C(=O)Nc2nnc(SCC(=O)NC3CC3)s2)cc1,active: 10 µM,
COc1ccccc1-c1nc2n(n1)C(c1ccc(Cl)cc1)C(C(N)=O)=C(C)N2 (configuration not stated),"inconclusive: 13 µM [activator, partial curve]",

SMILES,Potency,"activity change, negative = inhibition"
COC(=O)c1cc(Br)c(=O)n(Cc2ccc3c(c2)OCO3)c1,,inactive: 3.51%
CC(=O)Nc1ccccc1/C=C/c1ccc2c(C)cc(C)c(O)c2n1,,inactive: 9.05%
CC1CCCN(S(=O)(=O)c2ccc(NC(=O)C3CCN(C(=O)c4ccco4)CC3)cc2)C1 (configuration not stated),,inactive: -24% [at 46.1 µM]
Cc1cccc(C)c1OCc1cc(C(=O)N2CC3C[C@@H]4CC2C[C@H](C3)C4)no1,"inconclusive: 5.62 µM [inhibitor, partial curve, poor fit]",
CC(C)COP(=O)(c1ccc(N(C)C)cc1)C(O)c1ccccc1 (configuration not stated),,inactive: 17.6% [at 46.1 µM]
O=C(Nc1cc(-c2ccc(F)c(F)c2)no1)c1ccccc1F,"inconclusive: 7.08 µM [activator, partial curve, poor fit]",
CCOc1ccccc1N1CCN(C(=O)C(Sc2ccccc2)c2ccccc2)CC1 (configuration not stated),"inconclusive: 35.5 µM [inhibitor, single point]",
Cc1cccc(N2CCN(C(=O)C3CCCN(C(=O)c4cc5sccc5n4C)C3)CC2)c1C (configuration not stated),"inconclusive: 7.94 µM [inhibitor, partial curve, poor fit]",
CCn1c(SCC(=O)c2c[nH]c3ccccc23)nnc1-c1cccs1,"inconclusive: 4.47 µM [inhibitor, partial curve, poor fit]",
CC(C)(C)c1ccc(OCCC(=O)Nc2cccc(S(=O)(=O)N3CCCC3)c2)cc1,"inconclusive: 35.5 µM [inhibitor, single point]",
COc1ccc(OCCCC(=O)Nc2ccc(N3CCCCC3)cc2)cc1,"inconclusive: 0.0891 µM [inhibitor, full curve, poor fit]",
COc1ccc(-c2nn(-c3ccccc3)cc2/C=C\C(=O)Nc2ccc(C(=O)O)cc2)cc1,"inconclusive: 35.5 µM [inhibitor, single point]",
O=C1C=CC(=O)C(C2=C3C(=O)N(CCc4ccccc4)CC(=O)N3CCC2)=C1,,inactive: -5.18%
CC1(OC(=O)C2CCCC2)C(=O)C=C2C=C(c3ccsc3)N(CCc3ccccn3)C=C2C1=O (configuration not stated),"inconclusive: 0.531 µM [activator, full curve, poor fit]",
COC(=O)c1c(NC(=O)c2ccccc2)sc(C(=O)c2ccccc2)c1C,,inactive: 0.744%
COCCNC(=O)CN(C(=O)CCC(=O)Nc1ccccn1)c1ccc(F)cc1,"inconclusive: 35.5 µM [activator, single point]",
Cc1ccsc1/C=C1\SC(N2CC(C)OC(C)C2)=NC1=O (configuration not stated),,inactive: 7.11%
COc1ccc(N2CCCCn3c2nc2c3c(=O)n(C)c(=O)n2C)cc1,"inconclusive: 0.92 µM [inhibitor, full curve, poor fit]",
COC(=O)c1ccccc1NC(=O)CN(c1ccc(Cl)cc1)S(=O)(=O)c1ccc(OC)cc1,,inactive: 17.8% [at 46.1 µM]
CN(C)c1ccc(CNc2ncnc3sccc23)cc1,"inconclusive: 5.01 µM [inhibitor, full curve, poor fit]",
Cc1ccccc1NC(=O)c1ccc(S(=O)(=O)N2CCCC2)cc1,"inconclusive: 2.51 µM [inhibitor, single point]",

# Exported with bars between the fields: eleven of the compounds above.
SMILES | Potency | activity change, negative = inhibition
COC(=O)c1cc(Br)c(=O)n(Cc2ccc3c(c2)OCO3)c1 |  | inactive: 3.51%
CC(=O)Nc1ccccc1/C=C/c1ccc2c(C)cc(C)c(O)c2n1 |  | inactive: 9.05%
O=C(Nc1cc(-c2ccc(F)c(F)c2)no1)c1ccccc1F | inconclusive: 7.08 µM [activator, partial curve, poor fit] | 
CCOc1ccccc1N1CCN(C(=O)C(Sc2ccccc2)c2ccccc2)CC1 (configuration not stated) | inconclusive: 35.5 µM [inhibitor, single point] | 
CCn1c(SCC(=O)c2c[nH]c3ccccc23)nnc1-c1cccs1 | inconclusive: 4.47 µM [inhibitor, partial curve, poor fit] | 
CC(C)(C)c1ccc(OCCC(=O)Nc2cccc(S(=O)(=O)N3CCCC3)c2)cc1 | inconclusive: 35.5 µM [inhibitor, single point] | 
O=C1C=CC(=O)C(C2=C3C(=O)N(CCc4ccccc4)CC(=O)N3CCC2)=C1 |  | inactive: -5.18%
COC(=O)c1c(NC(=O)c2ccccc2)sc(C(=O)c2ccccc2)c1C |  | inactive: 0.744%
COc1ccc(N2CCCCn3c2nc2c3c(=O)n(C)c(=O)n2C)cc1 | inconclusive: 0.92 µM [inhibitor, full curve, poor fit] | 
CN(C)c1ccc(CNc2ncnc3sccc23)cc1 | inconclusive: 5.01 µM [inhibitor, full curve, poor fit] | 
Cc1ccccc1NC(=O)c1ccc(S(=O)(=O)N2CCCC2)cc1 | inconclusive: 2.51 µM [inhibitor, single point] | 
